From paper PMC5740495

Chains of the proteins cited; added tags and fusions are not shown.
UniProt Q8TEX9: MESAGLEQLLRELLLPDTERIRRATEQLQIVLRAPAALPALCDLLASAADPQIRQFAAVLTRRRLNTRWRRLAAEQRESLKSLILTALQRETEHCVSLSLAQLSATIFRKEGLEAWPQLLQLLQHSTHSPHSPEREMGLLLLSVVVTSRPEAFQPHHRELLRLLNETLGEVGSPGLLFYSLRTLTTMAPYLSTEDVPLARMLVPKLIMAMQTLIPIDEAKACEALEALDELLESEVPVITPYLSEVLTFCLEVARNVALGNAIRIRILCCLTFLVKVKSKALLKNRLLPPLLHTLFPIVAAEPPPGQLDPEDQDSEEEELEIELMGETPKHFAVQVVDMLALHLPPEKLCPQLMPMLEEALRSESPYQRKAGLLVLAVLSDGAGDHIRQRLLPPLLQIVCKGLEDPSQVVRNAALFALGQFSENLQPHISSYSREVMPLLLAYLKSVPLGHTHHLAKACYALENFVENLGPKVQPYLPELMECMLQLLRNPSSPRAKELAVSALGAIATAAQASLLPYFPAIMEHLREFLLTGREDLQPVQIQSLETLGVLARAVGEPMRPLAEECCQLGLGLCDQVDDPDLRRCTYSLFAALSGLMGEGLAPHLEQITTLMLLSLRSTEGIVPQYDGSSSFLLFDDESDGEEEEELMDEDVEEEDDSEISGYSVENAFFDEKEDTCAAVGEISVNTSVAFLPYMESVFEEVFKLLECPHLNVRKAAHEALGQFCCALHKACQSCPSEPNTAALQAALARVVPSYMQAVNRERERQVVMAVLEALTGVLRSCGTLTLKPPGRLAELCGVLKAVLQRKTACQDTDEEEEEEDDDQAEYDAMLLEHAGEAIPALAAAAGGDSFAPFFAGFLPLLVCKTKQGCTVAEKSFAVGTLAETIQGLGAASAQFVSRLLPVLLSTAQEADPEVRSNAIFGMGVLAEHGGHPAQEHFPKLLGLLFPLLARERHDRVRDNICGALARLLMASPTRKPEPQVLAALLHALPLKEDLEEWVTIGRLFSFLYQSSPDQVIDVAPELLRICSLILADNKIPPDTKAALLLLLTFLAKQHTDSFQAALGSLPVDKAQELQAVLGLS
UniProt O00410: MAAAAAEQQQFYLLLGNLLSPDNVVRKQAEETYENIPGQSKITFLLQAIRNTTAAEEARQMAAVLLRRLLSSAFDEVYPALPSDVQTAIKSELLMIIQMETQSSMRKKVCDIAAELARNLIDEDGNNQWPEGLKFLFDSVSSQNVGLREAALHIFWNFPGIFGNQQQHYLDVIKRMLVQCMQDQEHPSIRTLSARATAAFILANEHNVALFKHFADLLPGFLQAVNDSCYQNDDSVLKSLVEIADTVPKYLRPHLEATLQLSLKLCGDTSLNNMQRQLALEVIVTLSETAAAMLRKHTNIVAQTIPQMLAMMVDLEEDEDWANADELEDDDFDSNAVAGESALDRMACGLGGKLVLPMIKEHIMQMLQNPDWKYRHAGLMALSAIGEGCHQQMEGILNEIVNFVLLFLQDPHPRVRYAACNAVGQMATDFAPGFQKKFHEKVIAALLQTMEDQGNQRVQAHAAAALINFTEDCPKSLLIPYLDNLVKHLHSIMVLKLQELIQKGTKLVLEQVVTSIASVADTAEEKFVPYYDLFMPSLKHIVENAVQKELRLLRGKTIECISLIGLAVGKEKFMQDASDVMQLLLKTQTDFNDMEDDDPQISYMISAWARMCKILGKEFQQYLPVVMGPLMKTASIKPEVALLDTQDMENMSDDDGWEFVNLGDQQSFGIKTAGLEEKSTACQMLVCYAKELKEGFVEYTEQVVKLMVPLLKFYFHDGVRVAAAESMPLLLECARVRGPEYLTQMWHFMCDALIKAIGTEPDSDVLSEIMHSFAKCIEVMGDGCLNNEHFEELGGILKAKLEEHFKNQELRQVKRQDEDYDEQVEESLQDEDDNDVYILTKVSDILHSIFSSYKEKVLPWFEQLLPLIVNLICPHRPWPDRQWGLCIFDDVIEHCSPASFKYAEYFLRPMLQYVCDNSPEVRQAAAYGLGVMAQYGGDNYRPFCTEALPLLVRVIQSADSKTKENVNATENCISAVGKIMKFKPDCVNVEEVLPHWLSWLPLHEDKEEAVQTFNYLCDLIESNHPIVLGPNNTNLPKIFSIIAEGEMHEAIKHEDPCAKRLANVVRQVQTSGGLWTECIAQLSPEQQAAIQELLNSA
UniProt Q15596: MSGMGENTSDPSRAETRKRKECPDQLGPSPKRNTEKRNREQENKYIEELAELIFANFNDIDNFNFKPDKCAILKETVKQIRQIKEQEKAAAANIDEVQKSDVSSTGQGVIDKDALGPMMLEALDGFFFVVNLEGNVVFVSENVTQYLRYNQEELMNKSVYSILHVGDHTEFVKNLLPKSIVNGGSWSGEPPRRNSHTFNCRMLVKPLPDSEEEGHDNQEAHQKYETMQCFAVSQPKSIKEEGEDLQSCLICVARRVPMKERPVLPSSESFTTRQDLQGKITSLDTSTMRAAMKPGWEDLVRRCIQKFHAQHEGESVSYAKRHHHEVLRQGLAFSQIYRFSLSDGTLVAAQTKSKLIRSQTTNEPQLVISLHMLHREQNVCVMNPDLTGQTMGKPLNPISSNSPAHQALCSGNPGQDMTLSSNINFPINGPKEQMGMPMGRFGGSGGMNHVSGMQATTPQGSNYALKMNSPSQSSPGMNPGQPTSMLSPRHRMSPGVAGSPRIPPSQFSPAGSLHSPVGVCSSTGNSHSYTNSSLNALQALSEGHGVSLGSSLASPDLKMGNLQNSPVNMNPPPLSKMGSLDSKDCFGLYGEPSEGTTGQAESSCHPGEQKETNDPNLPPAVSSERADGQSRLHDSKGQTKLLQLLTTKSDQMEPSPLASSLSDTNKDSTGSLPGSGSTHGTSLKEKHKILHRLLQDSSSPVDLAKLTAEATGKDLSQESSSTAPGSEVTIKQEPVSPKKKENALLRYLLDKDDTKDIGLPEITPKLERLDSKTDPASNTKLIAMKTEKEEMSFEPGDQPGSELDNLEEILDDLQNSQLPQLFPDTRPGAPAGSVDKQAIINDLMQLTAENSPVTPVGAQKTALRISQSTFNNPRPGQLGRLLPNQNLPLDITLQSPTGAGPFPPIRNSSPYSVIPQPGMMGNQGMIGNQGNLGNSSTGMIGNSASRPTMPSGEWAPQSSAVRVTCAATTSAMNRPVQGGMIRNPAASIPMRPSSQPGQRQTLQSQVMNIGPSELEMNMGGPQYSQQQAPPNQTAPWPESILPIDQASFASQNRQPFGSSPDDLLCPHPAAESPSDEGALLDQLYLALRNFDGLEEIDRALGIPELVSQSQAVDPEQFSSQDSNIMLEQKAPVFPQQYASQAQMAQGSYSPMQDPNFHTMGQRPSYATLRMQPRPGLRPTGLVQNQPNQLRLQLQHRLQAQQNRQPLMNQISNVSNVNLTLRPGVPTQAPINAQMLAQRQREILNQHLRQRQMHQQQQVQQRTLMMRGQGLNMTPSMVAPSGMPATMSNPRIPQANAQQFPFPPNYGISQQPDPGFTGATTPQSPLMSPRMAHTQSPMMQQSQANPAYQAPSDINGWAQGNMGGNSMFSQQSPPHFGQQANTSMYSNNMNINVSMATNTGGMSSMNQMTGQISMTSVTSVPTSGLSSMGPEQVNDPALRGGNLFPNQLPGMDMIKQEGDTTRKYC
UniProt P52294: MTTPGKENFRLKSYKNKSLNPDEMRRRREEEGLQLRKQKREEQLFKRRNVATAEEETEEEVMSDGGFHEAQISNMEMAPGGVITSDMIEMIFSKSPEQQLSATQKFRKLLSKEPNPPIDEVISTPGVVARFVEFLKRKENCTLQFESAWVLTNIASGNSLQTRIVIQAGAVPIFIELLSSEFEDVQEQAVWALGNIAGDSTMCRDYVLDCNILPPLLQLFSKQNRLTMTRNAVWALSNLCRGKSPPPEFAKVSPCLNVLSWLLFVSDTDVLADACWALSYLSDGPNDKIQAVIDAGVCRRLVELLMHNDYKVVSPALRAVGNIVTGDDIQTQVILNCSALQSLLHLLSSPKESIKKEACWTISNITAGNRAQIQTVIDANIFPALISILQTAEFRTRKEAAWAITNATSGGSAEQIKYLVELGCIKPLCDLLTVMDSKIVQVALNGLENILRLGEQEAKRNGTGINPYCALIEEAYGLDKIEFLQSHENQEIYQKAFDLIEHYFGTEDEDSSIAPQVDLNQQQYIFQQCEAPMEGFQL
UniProt O75821: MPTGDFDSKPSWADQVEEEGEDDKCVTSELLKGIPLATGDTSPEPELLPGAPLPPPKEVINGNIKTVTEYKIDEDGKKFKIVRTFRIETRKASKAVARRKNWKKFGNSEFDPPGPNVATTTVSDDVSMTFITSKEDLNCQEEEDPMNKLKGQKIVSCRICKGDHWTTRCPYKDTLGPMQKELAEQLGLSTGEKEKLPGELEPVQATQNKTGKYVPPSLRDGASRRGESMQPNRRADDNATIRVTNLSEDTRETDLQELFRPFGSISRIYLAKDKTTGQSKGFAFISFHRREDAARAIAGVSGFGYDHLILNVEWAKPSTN
UniProt O00505: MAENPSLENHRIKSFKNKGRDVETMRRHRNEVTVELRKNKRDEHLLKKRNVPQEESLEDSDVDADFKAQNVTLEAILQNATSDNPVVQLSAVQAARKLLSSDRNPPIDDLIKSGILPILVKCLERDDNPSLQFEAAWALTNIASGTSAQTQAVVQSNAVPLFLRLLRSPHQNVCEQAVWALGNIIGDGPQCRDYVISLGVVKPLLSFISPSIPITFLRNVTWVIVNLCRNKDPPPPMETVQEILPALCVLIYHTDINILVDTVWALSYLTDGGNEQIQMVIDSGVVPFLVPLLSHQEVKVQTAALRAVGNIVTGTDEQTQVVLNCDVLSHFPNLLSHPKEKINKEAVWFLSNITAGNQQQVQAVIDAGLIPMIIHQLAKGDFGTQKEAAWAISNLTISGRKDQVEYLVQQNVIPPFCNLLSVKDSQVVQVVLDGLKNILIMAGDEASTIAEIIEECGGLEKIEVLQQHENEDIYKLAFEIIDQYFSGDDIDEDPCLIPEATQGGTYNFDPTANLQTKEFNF
UniProt Q92973: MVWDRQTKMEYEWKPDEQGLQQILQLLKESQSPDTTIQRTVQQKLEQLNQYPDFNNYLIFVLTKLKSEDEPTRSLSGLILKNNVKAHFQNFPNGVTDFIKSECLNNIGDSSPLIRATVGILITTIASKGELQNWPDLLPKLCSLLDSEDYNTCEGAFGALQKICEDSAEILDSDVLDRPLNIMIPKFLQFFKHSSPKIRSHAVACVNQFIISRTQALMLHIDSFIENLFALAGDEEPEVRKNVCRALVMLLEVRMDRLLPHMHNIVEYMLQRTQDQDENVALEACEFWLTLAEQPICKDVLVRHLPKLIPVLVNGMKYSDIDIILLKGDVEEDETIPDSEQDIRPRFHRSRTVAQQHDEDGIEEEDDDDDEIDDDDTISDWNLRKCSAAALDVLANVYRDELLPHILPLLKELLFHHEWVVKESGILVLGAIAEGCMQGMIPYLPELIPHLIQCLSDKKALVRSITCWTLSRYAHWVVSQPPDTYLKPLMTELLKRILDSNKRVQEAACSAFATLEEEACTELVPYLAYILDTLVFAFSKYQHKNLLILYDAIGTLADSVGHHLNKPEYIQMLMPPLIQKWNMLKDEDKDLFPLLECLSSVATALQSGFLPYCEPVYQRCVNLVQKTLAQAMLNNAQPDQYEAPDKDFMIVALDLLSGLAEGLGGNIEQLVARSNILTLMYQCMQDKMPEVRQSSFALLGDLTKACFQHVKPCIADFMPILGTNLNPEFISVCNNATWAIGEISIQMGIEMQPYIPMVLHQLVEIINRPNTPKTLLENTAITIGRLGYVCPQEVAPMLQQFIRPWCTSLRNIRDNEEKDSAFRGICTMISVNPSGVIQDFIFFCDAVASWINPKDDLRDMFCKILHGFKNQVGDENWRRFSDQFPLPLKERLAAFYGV
UniProt P60228: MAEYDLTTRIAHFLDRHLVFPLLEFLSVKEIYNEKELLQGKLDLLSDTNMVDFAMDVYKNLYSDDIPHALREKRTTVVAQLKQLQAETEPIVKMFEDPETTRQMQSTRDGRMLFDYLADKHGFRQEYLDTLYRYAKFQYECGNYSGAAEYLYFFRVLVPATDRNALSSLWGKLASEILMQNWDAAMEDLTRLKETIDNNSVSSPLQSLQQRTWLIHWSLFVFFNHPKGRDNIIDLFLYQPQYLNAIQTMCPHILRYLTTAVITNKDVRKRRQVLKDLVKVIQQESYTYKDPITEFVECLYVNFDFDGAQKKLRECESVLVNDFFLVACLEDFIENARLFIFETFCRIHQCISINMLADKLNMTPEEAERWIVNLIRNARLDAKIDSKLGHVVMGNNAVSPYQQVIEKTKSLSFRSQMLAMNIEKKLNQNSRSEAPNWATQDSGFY

T1: TNPO2 (human) (UniProt O14787)
T1 sequence: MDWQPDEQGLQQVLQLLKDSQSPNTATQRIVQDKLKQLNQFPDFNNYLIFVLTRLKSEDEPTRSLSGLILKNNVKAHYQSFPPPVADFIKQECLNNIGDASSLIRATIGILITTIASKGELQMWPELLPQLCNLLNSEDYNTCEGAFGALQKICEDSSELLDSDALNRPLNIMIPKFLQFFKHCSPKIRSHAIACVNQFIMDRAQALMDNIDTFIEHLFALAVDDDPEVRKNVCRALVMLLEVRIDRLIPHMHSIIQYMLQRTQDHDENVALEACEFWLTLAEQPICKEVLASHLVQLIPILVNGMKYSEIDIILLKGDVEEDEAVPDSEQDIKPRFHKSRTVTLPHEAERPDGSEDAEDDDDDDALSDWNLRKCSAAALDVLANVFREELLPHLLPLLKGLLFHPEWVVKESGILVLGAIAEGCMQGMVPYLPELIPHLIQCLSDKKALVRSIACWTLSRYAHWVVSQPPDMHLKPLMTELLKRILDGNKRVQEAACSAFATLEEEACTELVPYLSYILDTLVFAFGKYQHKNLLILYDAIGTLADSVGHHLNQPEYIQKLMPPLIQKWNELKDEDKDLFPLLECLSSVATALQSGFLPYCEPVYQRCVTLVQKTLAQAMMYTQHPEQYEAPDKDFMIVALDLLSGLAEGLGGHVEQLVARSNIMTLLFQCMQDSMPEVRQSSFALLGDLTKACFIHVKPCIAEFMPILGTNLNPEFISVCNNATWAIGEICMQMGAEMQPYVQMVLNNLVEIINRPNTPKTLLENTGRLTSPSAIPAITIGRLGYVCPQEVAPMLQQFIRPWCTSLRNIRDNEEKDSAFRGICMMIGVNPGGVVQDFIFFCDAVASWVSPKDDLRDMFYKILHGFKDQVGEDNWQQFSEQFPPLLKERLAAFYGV


Assays:
IPO4 (human) = IPO4 (human) (UniProt Q8TEX9); assay: proximity labelling; BioID, large-scale, direct identification of biotinylated peptides: same NTR-BirA* lines; biotinylated peptides eluted from streptavidin beads with 80% ACN, 20% TFA after the on-bead digest, MS
IPO5 (human) = IPO5 (human) (UniProt O00410); assay: as above
IMA6 (human) = IMA6 (human) (UniProt O15131); assay: as above
SRC2 (human) = SRC2 (human) (UniProt Q15596); assay: proximity labelling; BioID, reciprocal: cargo fused to BirA*-FLAG (N- or C-terminal) in stable Flp-In T-REx 293 lines, four biological replicates; cargo interactomes compared pairwise, with BirA* alone and non-engineered cells
TNPO2 (human) = biological target: T1, TNPO2 (human); assay: proximity labelling; BioID, large-scale, direct identification of biotinylated peptides: same NTR-BirA* lines; biotinylated peptides eluted from streptavidin beads with 80% ACN, 20% TFA after the on-bead digest, MS
IMA5 (human) = IMA5 (human) (UniProt P52294); assay: as above

| binding (IPO4 (human)) | binding (IPO5 (human)) | binding (SRC2 (human)) | Molecule | also measured |
| --- | --- | --- | --- | --- |
| binds | binds |  | Eukaryotic translation initiation factor 3 Subunit G (from UniProt O75821 1-320) |  |
| binds | binds |  | Eukaryotic translation initiation factor 3 Subunit J (from UniProt O75822 1-258) |  |
|  |  |  | ICE1 (from UniProt Q9Y2F5 1-2266) | binding (IMA6 (human)): binds |
|  |  | binds | IMA4 (from UniProt O00505 1-521) |  |
|  |  | binds | IMA5 (from UniProt P52294 1-538) |  |
|  |  | binds | TNPO1 (from UniProt Q92973 1-898) |  |
| binds | binds |  | eIF3E (from UniProt P60228 1-445) |  |
| binds | binds |  | eukaryotic translation initiation factor 3 (subunit D, EIF3D) (from UniProt O15371 1-548) |  |
|  |  |  | FUBP2 (protein, UniProt Q92945 1-711) MSDYSTGGPPPGPPPPAGGGGGAGGAGGGPPPGPPGAGDRGGGGPGGGGPGGGSAGGPSQPPGGGGPGIRKDAFADAVQRARQIAAKIGGDAATTVNNSTPDFGFGGQKRQLEDGDQPESKKLASQGDSISSQLGPIHPPPRTSMTEEYRVPDGMVGLIIGRGGEQINKIQQDSGCKVQISPDSGGLPERSVSLTGAPESVQKAKMMLDDIVSRGRGGPPGQFHDNANGGQNGTVQEIMIPAGKAGLVIGKGGETIKQLQERAGVKMILIQDGSQNTNVDKPLRIIGDPYKVQQACEMVMDILRERDQGGFGDRNEYGSRIGGGIDVPVPRHSVGVVIGRSGEMIKKIQNDAGVRIQFKQDDGTGPEKIAHIMGPPDRCEHAARIINDLLQSLRSGPPGPPGGPGMPPGGRGRGRGQGNWGPPGGEMTFSIPTHKCGLVIGRGGENVKAINQQTGAFVEISRQLPPNGDPNFKLFIIRGSPQQIDHAKQLIEEKIEGPLCPVGPGPGGPGPAGPMGPFNPGPFNQGPPGAPPHAGGPPPHQYPPQGWGNTYPQWQPPAPHDPSKAAAAAADPNAAWAAYYSHYYQQPPGPVPGPAPAPAAPPAQGEPPQPPPTGQSDYTKAWEEYYKKIGQQPQQPGAPPQQDYTKAWEEYYKKQAQVATGGGPGAPPGSQPDYSAAWAEYYRQQAAYYGQTPGPGGPQPPPTQQGQQQAQ | binding (TNPO2 (human)): binds |
|  |  |  | DKC1 (protein, UniProt O60832 1-514) MADAEVIILPKKHKKKKERKSLPEEDVAEIQHAEEFLIKPESKVAKLDTSQWPLLLKNFDKLNVRTTHYTPLACGSNPLKREIGDYIRTGFINLDKPSNPSSHEVVAWIRRILRVEKTGHSGTLDPKVTGCLIVCIERATRLVKSQQSAGKEYVGIVRLHNAIEGGTQLSRALETLTGALFQRPPLIAAVKRQLRVRTIYESKMIEYDPERRLGIFWVSCEAGTYIRTLCVHLGLLLGVGGQMQELRRVRSGVMSEKDHMVTMHDVLDAQWLYDNHKDESYLRRVVYPLEKLLTSHKRLVMKDSAVNAICYGAKIMLPGVLRYEDGIEVNQEIVVITTKGEAICMAIALMTTAVISTCDHGIVAKIKRVIMERDTYPRKWGLGPKASQKKLMIKQGLLDKHGKPTDSTPATWKQEYVDYSESAKKEVVAEVVKAPQVVAEAAKTAKRKRESESESDETPPAAPQLIKKEKKKSKKDKKAKAGLESGAEPGDGDSDTTKKKKKKKKAKEVELVSE | binding (IMA6 (human)): binds; binding (IMA5 (human)): binds |
|  |  |  | CRTC3 (protein, UniProt Q6UUV7 1-619) MAASPGSGSANPRKFSEKIALHTQRQAEETRAFEQLMTDLTLSRVQFQKLQQLRLTQYHGGSLPNVSQLRSSASEFQPSFHQADNVRGTRHHGLVERPSRNRFHPLHRRSGDKPGRQFDGSAFGANYSSQPLDESWPRQQPPWKDEKHPGFRLTSALNRTNSDSALHTSALSTKPQDPYGGGGQSAWPAPYMGFCDGENNGHGEVASFPGPLKEENLLNVPKPLPKQLWETKEIQSLSGRPRSCDVGGGNAFPHNGQNLGLSPFLGTLNTGGSLPDLTNLHYSTPLPASLDTTDHHFGSMSVGNSVNNIPAAMTHLGIRSSSGLQSSRSNPSIQATLNKTVLSSSLNNHPQTSVPNASALHPSLRLFSLSNPSLSTTNLSGPSRRRQPPVSPLTLSPGPEAHQGFSRQLSSTSPLAPYPTSQMVSSDRSQLSFLPTEAQAQVSPPPPYPAPQELTQPLLQQPRAPEAPAQQPQAASSLPQSDFQLLPAQGSSLTNFFPDVGFDQQSMRPGPAFPQQVPLVQQGSRELQDSFHLRPSPYSNCGSLPNTILPEDSSTSLFKDLNSALAGLPEVSLNVDTPFPLEEELQIEPLSLDGLNMLSDSSMGLLDPSVEETFRADRL | binding (TNPO2 (human)): binds |
|  |  | binds | TNPO2 (protein, UniProt O14787 1-897) MDWQPDEQGLQQVLQLLKDSQSPNTATQRIVQDKLKQLNQFPDFNNYLIFVLTRLKSEDEPTRSLSGLILKNNVKAHYQSFPPPVADFIKQECLNNIGDASSLIRATIGILITTIASKGELQMWPELLPQLCNLLNSEDYNTCEGAFGALQKICEDSSELLDSDALNRPLNIMIPKFLQFFKHCSPKIRSHAIACVNQFIMDRAQALMDNIDTFIEHLFALAVDDDPEVRKNVCRALVMLLEVRIDRLIPHMHSIIQYMLQRTQDHDENVALEACEFWLTLAEQPICKEVLASHLVQLIPILVNGMKYSEIDIILLKGDVEEDEAVPDSEQDIKPRFHKSRTVTLPHEAERPDGSEDAEDDDDDDALSDWNLRKCSAAALDVLANVFREELLPHLLPLLKGLLFHPEWVVKESGILVLGAIAEGCMQGMVPYLPELIPHLIQCLSDKKALVRSIACWTLSRYAHWVVSQPPDMHLKPLMTELLKRILDGNKRVQEAACSAFATLEEEACTELVPYLSYILDTLVFAFGKYQHKNLLILYDAIGTLADSVGHHLNQPEYIQKLMPPLIQKWNELKDEDKDLFPLLECLSSVATALQSGFLPYCEPVYQRCVTLVQKTLAQAMMYTQHPEQYEAPDKDFMIVALDLLSGLAEGLGGHVEQLVARSNIMTLLFQCMQDSMPEVRQSSFALLGDLTKACFIHVKPCIAEFMPILGTNLNPEFISVCNNATWAIGEICMQMGAEMQPYVQMVLNNLVEIINRPNTPKTLLENTGRLTSPSAIPAITIGRLGYVCPQEVAPMLQQFIRPWCTSLRNIRDNEEKDSAFRGICMMIGVNPGGVVQDFIFFCDAVASWVSPKDDLRDMFYKILHGFKDQVGEDNWQQFSEQFPPLLKERLAAFYGV |  |

No constants are given. Whether binding was seen depends on the method and setting. Binding seen in cells or lysates may run through a third protein. These calls come from enrichment with a bait or labelling near it, and not all partners need be listed.
